Measurements from the supplement of paper PMC10849652.
The list shows a part of the results.

Amino acid sequences for entries named in this document (tags omitted). A change or cut given only in a name is not applied to a line headed by its entry.
UniProt O14949: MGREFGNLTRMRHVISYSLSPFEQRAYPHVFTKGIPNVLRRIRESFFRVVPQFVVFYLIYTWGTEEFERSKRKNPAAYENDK
UniProt Q9H347: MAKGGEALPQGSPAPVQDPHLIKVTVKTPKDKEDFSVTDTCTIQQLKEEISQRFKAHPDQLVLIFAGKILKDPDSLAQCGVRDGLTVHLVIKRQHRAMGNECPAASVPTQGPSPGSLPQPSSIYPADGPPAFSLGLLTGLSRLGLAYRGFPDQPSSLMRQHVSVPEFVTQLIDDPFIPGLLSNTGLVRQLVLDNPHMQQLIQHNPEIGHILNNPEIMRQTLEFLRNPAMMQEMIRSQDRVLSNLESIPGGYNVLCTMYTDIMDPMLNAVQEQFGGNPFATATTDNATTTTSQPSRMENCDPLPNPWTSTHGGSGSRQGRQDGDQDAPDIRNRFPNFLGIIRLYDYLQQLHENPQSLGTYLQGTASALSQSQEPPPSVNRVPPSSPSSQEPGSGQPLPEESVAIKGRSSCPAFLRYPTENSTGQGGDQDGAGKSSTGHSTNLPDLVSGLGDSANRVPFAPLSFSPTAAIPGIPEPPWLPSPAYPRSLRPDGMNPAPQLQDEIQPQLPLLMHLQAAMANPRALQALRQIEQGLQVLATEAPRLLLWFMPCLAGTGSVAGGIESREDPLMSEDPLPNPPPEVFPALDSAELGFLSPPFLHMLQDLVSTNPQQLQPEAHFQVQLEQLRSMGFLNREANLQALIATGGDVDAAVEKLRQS
UniProt Q9UMX0, whole entry, looked up: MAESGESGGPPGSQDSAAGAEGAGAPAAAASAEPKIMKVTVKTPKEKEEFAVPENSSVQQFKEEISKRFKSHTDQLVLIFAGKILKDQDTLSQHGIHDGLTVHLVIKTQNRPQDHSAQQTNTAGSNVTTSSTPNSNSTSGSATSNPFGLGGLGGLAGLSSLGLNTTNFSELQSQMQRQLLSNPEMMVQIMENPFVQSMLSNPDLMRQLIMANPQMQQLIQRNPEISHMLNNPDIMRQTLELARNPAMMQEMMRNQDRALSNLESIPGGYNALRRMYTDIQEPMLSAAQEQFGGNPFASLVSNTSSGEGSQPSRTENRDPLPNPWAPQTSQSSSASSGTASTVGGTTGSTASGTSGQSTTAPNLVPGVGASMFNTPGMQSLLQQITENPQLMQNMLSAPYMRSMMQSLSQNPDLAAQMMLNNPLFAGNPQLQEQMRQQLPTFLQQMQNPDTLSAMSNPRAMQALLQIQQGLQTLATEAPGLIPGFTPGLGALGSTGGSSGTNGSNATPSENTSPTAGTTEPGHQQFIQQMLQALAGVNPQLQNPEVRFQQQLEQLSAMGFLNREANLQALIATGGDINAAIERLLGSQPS
UniProt Q9HAU5: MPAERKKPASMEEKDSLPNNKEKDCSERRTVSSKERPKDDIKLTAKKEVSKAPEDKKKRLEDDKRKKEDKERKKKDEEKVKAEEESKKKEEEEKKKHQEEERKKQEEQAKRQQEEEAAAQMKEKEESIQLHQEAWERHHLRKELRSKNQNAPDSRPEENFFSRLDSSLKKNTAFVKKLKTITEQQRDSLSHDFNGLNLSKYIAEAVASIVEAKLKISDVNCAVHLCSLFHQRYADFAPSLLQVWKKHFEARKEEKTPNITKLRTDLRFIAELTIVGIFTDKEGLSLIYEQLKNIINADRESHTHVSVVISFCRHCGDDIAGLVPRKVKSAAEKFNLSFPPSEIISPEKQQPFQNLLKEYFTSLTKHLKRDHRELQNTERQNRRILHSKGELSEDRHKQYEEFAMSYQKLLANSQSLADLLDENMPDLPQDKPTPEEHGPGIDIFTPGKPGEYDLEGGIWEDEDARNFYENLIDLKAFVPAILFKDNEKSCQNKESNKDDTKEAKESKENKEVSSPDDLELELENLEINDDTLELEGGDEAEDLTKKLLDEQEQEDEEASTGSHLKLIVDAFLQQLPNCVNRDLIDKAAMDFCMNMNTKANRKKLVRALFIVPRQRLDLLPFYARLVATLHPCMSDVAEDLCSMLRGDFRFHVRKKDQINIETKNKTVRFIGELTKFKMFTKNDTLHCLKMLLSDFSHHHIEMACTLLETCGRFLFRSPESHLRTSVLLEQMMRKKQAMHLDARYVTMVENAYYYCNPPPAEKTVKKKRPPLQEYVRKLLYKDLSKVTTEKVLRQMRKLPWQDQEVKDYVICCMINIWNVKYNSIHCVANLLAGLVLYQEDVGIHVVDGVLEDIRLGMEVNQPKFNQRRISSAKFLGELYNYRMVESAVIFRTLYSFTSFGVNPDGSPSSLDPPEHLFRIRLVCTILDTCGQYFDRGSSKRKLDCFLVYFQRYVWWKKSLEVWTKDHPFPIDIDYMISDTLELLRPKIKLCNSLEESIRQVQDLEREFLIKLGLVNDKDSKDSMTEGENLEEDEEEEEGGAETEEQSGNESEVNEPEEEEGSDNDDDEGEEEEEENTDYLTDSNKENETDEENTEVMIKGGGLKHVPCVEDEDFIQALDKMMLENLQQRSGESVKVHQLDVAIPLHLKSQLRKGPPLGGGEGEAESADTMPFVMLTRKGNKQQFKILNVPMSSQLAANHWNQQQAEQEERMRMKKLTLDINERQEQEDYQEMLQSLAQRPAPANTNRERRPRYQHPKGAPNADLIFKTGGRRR
UniProt Q9BZL1: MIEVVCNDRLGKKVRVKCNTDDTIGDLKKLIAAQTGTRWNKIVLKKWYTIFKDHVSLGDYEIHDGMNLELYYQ
UniProt P07919: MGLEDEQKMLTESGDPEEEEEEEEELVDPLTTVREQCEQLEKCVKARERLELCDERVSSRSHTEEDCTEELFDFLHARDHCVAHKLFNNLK
UniProt Q14694, whole entry, looked up: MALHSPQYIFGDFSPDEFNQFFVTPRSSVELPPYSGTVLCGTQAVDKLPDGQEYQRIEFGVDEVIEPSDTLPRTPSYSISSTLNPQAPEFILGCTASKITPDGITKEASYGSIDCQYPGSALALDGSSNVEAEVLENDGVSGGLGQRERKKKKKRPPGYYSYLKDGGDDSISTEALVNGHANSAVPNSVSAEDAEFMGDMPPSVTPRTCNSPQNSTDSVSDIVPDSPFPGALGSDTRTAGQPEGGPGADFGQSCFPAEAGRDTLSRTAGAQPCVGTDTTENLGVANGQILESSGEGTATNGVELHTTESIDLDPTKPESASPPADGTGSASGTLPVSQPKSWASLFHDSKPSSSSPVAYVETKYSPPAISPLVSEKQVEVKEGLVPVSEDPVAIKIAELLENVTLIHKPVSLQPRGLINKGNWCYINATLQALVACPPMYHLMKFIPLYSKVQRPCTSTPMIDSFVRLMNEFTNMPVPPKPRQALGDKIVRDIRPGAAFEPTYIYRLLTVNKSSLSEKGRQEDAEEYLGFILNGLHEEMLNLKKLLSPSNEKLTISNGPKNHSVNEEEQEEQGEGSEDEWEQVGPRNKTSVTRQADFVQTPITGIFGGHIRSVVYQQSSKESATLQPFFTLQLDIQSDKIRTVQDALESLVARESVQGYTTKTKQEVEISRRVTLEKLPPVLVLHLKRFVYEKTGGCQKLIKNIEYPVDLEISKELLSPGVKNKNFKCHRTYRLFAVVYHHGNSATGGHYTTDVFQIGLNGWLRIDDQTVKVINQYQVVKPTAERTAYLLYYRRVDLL
UniProt Q8TED0: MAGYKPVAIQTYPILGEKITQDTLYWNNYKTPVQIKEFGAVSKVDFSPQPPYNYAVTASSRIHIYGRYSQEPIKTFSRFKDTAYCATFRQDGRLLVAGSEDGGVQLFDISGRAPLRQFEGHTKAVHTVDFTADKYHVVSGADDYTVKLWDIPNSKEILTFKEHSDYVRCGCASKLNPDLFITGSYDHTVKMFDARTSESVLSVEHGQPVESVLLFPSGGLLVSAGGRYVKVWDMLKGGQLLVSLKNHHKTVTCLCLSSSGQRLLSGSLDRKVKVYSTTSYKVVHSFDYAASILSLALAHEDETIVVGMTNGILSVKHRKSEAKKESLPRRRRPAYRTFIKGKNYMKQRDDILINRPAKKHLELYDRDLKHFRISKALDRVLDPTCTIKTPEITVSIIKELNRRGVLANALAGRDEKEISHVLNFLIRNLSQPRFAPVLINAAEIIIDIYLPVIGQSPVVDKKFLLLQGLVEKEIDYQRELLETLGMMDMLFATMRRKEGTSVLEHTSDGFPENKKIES
UniProt Q9NZ43: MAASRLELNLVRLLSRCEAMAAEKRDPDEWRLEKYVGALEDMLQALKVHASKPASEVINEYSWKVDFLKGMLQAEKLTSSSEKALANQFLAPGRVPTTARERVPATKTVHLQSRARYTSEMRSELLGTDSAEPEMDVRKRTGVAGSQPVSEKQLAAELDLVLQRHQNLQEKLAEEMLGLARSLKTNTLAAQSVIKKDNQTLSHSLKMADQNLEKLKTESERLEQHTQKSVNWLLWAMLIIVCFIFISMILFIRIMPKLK
UniProt O75379: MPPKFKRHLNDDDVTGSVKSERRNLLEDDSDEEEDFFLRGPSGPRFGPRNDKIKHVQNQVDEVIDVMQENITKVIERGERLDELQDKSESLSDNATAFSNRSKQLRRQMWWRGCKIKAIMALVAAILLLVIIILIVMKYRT
UniProt Q9HA47: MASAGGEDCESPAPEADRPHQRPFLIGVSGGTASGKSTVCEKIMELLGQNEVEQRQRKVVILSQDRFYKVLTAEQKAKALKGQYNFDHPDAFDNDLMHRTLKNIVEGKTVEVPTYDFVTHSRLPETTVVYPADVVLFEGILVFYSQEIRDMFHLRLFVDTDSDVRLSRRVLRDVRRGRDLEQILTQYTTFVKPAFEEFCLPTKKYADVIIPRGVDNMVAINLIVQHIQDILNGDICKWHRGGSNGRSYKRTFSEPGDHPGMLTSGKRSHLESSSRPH
UniProt O94888: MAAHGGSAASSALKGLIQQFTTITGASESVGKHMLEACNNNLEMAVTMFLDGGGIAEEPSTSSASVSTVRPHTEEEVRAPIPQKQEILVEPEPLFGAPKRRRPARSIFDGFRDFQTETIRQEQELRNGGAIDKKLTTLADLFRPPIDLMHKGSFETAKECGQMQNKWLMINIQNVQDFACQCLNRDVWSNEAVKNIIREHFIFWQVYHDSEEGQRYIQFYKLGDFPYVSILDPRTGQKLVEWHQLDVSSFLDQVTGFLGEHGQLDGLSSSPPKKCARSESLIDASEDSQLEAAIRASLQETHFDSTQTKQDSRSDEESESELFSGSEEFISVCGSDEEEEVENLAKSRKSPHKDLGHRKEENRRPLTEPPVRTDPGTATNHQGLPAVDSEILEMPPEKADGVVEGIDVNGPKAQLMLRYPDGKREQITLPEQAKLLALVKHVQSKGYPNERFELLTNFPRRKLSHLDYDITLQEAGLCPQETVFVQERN
UniProt Q9NUQ7: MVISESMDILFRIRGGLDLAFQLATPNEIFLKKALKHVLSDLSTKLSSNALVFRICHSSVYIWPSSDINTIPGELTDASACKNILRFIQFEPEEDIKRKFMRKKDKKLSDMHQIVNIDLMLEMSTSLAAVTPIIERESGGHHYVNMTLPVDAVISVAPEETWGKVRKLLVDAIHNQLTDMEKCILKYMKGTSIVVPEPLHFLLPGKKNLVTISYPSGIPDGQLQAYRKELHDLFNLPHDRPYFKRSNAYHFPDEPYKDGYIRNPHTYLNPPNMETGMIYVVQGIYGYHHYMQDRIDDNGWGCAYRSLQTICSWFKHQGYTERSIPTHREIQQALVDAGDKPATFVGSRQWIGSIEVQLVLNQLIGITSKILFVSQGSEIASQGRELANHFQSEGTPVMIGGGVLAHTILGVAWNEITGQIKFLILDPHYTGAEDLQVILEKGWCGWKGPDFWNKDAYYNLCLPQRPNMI
UniProt Q92738: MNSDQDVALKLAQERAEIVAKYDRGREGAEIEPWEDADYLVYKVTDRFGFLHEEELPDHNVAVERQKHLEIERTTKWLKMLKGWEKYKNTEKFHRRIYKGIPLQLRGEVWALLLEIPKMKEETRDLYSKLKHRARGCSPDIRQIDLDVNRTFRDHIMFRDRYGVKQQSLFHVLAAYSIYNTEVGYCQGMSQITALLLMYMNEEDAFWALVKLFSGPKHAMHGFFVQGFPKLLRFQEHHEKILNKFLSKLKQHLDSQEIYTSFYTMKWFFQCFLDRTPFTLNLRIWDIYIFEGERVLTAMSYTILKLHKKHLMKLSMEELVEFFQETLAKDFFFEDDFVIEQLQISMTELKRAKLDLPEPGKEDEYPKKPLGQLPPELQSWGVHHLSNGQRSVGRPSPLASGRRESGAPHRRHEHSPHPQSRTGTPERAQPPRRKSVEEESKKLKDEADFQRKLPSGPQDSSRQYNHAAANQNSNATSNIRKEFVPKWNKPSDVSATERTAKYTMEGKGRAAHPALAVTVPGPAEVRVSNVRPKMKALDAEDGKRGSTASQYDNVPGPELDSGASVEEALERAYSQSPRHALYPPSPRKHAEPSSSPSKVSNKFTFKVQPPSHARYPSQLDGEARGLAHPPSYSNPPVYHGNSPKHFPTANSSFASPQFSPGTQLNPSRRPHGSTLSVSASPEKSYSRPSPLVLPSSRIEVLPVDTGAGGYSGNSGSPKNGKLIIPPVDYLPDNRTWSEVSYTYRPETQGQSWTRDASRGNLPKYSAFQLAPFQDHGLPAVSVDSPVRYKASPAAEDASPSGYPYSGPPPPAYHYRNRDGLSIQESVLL

Compound: c1cn2cc(-c3ccc4cn[nH]c4c3)nc(Nc3ccc(N4CCOCC4)cc3)c2n1 [entospletinib]
Assay: log2 fold change, soluble protein after heating vs DMSO (PISA); higher = thermal stabilisation; K562 cells, 10 uM, 30 min; active = over 0.2 and 3.5 SD of the protein, either way, in both replicates (recomputed)
Outline: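 Values are thermal stability changes relative to control samples and are taken from duplicates. They are stated as log2 fold changes. Before quantification by TMTpro 16plex LC-MS/MS with equalised channel sums, K562 cells at 2×10^6 cells/mL were treated with 10 μM compound for 30 min, heated in aliquots for 3 min across 48°C-58°C, pooled, extracted in PBS with 0.5% NP-40 at 4°C, and centrifuged at 21,000xg for 90 min to give the soluble supernatant.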

log2 fold change, inactive:
UQCRQ (UniProt O14949) 0.003
UVRAG (UniProt Q9P2Y5) 0.01
UBQLN3 (UniProt Q9H347) 0.291
UBQLN1 (UniProt Q9UMX0) 0.094
USP47 (UniProt Q96K76) 0.068
UPF2 (UniProt Q9HAU5) 0.196
URI1 isoform 4 (UniProt O94763) 0.064
VCL (UniProt P18206) -0.036
UBL5 (UniProt Q9BZL1) 0.089
URI1 (UniProt O94763) 0.013
UQCRH (UniProt P07919) -0.1
USP10 isoform 2 (UniProt Q14694) 0.063
USP1 (UniProt O94782) 0.109
UTP15 (UniProt Q8TED0) 0.079
UFC1 (UniProt Q9Y3C8) 0.024
USE1 (UniProt Q9NZ43) 0.037
UXS1 isoform 2 (UniProt Q8NBZ7) -0.062
VAMP4 (UniProt O75379) 0.023
UBR5 (UniProt O95071) 0.034
UCK1 (UniProt Q9HA47) -0.099
UBXN7 (UniProt O94888) 0.014
UTP18 (UniProt Q9Y5J1) 0.109
UFSP2 (UniProt Q9NUQ7) -0.01
USP6NL isoform 2 (UniProt Q92738) -0.233

2 entries picked at random from the list so far, as already listed:
log2 fold change, inactive:
UTP15 (UniProt Q8TED0) 0.079
USP1 (UniProt O94782) 0.109
